PubChem BioAssay AID504786, Drosophila RNAi Screening Center, 2011
Test: 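Fly genes required for HIF-dependent transcription when hypoxia is mimicked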 (primary screen). System: Drosophila S2 cells with a stable HIF luciferase reporter. Knock-down reagent: long dsRNA against Drosophila genes, about 0.2 µg dsRNA per well of a 384-well plate. Time to read-out: three days of knock-down, then 20 h of DFO before reading. Challenge: desferrioxamine (DFO) at 100 µM, an iron chelator that mimics hypoxia, for 20 h. Measured: 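HIF reporter luminescence in cells given 100 µM DFO for 20 h, using the mouse ldh-a hypoxia-response element, scored as per-plate z-scores; higher means greater loss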. Direction: z-score: higher = stronger loss of HIF reporter signal.
In all, the deposit lists about 21,000 reagents; below is an unselected part of those with a known target gene and a result. 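Primary screen; positive scores mean lost reporter signal, so the sign may be inverted from the usual convention.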 Further read-outs or replicates are left out here.

CG7102 [DRSC02647]: z-score, replicate 1 = -0.3
CG7102 [DRSC03007]: z-score, replicate 1 = -0.3
Madm (MLF1-adaptor molecule) [DRSC12129]: z-score, replicate 1 = 0.8
Vti1b (Vesicle transport through interaction with t-SNAREs 1b) [DRSC16283]: z-score, replicate 1 = -0.2
Vti1b (Vesicle transport through interaction with t-SNAREs 1b) [DRSC16284]: z-score, replicate 1 = -0.4
Hpd (4-hydroxyphenylpyruvate dioxygenase) [DRSC11670]: z-score, replicate 1 = -0.3
hebe [DRSC05192]: z-score, replicate 1 = -0.2
hebe [DRSC06605]: z-score, replicate 1 = -0.3
CG12848 [DRSC04128]: z-score, replicate 1 = -0.4
Acn (Acinus) [DRSC02062]: z-score, replicate 1 = 1.2
CG7506 [DRSC10860]: z-score, replicate 1 = -0.3
sstn (stepping stone) [DRSC10753]: z-score, replicate 1 = -0.1
CG5039 [DRSC15703]: z-score, replicate 1 = -0.3
CG31957 [DRSC00207]: z-score, replicate 1 = -0.2
Or42a (Odorant receptor 42a) [DRSC04912]: z-score, replicate 1 = -0.3
ND1 (retired record) [DRSC21273]: z-score, replicate 1 = -0.1
mid (midline) [DRSC02977]: z-score, replicate 1 = -0.2
pHCl-1 (pH-sensitive chloride channel 1) [DRSC09401]: z-score, replicate 1 = -0.9
pHCl-1 (pH-sensitive chloride channel 1) [DRSC09991]: z-score, replicate 1 = -0.1
pHCl-1 (pH-sensitive chloride channel 1) [DRSC10589]: z-score, replicate 1 = -0.3
Rab9Fb (Rab at 9Fb) [DRSC19854]: z-score, replicate 1 = -0.3
zfh1 (Zn finger homeodomain 1) [DRSC14014]: z-score, replicate 1 = -0.5
zfh1 (Zn finger homeodomain 1) [DRSC17098]: z-score, replicate 1 = 2.3
betaTub65B (beta-Tubulin at 65B) [DRSC11393]: z-score, replicate 1 = -0.5
Rx (Retinal Homeobox) [DRSC03837]: z-score, replicate 1 = -0.5
Rx (Retinal Homeobox) [DRSC04652]: z-score, replicate 1 = -0.3
CG10550 [DRSC14251]: z-score, replicate 1 = -0.3

An excerpt of the results above:
Vti1b (Vesicle transport through interaction with t-SNAREs 1b) [DRSC16283]: z-score, replicate 1 = -0.2
Vti1b (Vesicle transport through interaction with t-SNAREs 1b) [DRSC16284]: z-score, replicate 1 = -0.4
Hpd (4-hydroxyphenylpyruvate dioxygenase) [DRSC11670]: z-score, replicate 1 = -0.3
hebe [DRSC05192]: z-score, replicate 1 = -0.2
